Measurements as given in PubChem BioAssay.
Inconclusive means that the source gave no clear call. Such entries were picked first, then a sample of the others. For part of these data: Where the call is inconclusive, the potency comes from a doubtful curve fit. Active and inactive are the calls of the source. Unless noted, no cut-off is given here; in the data, nearly all actives have AC50 up to about 26 µM.

Amino acid sequences for entries named in this document (tags omitted).
UniProt P08183, whole entry, looked up: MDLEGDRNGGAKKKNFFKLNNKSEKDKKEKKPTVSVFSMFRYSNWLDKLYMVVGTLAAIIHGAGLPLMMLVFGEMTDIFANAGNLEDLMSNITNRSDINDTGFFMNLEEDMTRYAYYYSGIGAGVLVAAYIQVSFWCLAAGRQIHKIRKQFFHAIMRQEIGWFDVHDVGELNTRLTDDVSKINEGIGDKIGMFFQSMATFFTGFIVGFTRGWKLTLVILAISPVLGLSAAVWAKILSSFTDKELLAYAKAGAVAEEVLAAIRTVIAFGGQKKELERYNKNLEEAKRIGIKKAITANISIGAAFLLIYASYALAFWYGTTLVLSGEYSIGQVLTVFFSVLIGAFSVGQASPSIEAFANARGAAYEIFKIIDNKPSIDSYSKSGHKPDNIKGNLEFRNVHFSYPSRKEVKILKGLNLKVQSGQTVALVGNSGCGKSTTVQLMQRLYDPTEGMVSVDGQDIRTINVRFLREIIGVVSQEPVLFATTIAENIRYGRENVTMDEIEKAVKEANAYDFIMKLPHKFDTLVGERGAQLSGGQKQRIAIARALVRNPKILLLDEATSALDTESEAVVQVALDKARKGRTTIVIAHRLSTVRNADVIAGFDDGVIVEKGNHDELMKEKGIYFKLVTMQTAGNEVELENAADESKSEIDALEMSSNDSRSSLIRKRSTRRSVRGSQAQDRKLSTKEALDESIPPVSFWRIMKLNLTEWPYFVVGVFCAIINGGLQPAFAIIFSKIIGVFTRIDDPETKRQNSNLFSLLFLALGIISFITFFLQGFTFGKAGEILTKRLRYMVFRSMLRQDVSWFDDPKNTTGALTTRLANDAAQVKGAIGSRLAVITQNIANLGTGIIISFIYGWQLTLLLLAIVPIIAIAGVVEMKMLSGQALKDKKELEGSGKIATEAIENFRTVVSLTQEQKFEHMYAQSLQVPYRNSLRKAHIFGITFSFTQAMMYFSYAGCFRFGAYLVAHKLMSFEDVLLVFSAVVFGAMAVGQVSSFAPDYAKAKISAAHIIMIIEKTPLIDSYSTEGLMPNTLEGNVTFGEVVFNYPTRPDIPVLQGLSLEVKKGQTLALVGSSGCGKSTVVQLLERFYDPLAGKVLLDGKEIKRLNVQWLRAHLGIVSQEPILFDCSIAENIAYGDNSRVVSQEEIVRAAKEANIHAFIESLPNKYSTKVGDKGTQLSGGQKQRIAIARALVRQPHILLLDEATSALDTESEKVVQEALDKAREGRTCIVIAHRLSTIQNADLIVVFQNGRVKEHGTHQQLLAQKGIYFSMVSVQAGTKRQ

What was measured:
[1] = growth inhibition of DIPG glioma cells, dose response, cell-based, SU-DIPG-XVII, MIPE5.0, CellTiter-Glo, qHTS (AID 1347060); conditions: SU-DIPG-XVII viability, CellTiter-Glo ATP luminescence;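 for AC50: cells exposed to compound for 48 hours before viability readout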
[2] = growth inhibition of DIPG glioma cells, dose response, cell-based, SU-DIPG-XIII, MIPE4.0, CellTiter-Glo, qHTS (AID 1347061; cut-off not given, nearly all actives have AC50 up to about 37 µM;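 note: cells exposed to compound for 48 hours before readout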); conditions: SU-DIPG-XIII viability, CellTiter-Glo ATP luminescence
[3] = growth inhibition of DIPG glioma cells, dose response, cell-based, JHH-DIPG-1, MIPE4.0, CellTiter-Glo, qHTS (AID 1347062; cut-off not given, nearly all actives have AC50 up to about 27 µM;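 for AC50: cells exposed to compound for two days before readout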); conditions: JHH-DIPG-1 viability, CellTiter-Glo ATP luminescence
[4] = growth inhibition of DIPG glioma cells, dose response, cell-based, SU-DIPG-IV, MIPE4.0, CellTiter-Glo, qHTS (AID 1347063; cut-off not given, nearly all actives have AC50 up to about 30 µM;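 note: compound exposure lasted 48 hours before the viability readout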); conditions: SU-DIPG-IV viability, CellTiter-Glo ATP luminescence
[5] = growth inhibition of DIPG glioma cells, dose response, cell-based, SU-DIPG-XIII, MIPE5.0, CellTiter-Glo, qHTS (AID 1347064; cut-off not given, nearly all actives have AC50 up to about 23 µM;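 for AC50: cells exposed to compound for 48 hours before the viability read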); conditions: SU-DIPG-XIII viability, CellTiter-Glo ATP luminescence
[6] = viability loss in pontine glioma line – cell-based, SU-DIPG-XXV, MIPE5.0, CellTiter-Glo, qHTS, dose response (AID 1347065); conditions: CellTiter-Glo ATP luminescence;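 note: cells exposed to compound for 48 hours before ATP readout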
[7] = SU-DIPG-VI glioma cell viability, MIPE4.0 library, CellTiter-Glo luminescence, qHTS (AID 1347066; cut-off not given, nearly all actives have AC50 up to about 30 µM;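 note: cells exposed to compound for 48 hours before readout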); conditions: CellTiter-Glo ATP luminescence
[8] = SU-DIPG-XXV glioma cell viability, MIPE5.0 library, qHTS (AID 1347068; cut-off not given, nearly all actives have IC50 up to about 30 µM;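 for IC50: cells exposed to compound for 48 hours before viability readout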)
[9] = JHH-DIPG-1 glioma cell viability, MIPE5.0 library, CellTiter-Glo luminescence, qHTS (AID 1347067); conditions: JHH-DIPG-1 glioma viability, CellTiter-Glo ATP luminescence;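 note: cells exposed to compound for 48 hours before readout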
[10] = inhibitors of polyQ aggregate elongation, biochemical, solid-phase synthetic aggregates, QA3 (AID 1585; call rule not given here); conditions: biotin-polyQ incorporation, at 100 µM, stronger effect = higher value
[11] = polyglutamine aggregation reduction, turbidity readout, qthio, single concentration 25 µM screen (AID 1588; call rule not given here); conditions: at 25 µM, stronger effect = lower value
[12] = enhancers of SMN2 over SMN1 splicing, cell-based, SMN2/SMN1 luciferase reporters (AID 1598; call rule not given here); conditions: SMN2 vs SMN1 luciferase splicing reporter cells; at 10 µM; stronger effect = higher value
[13] = biological target: ATP-dependent translocase ABCB1 (Homo sapiens) (UniProt P08183); assay: MDR1 (ABCB1) efflux transporter inhibition, cell-based (AID 377; in the data active = fluorescence slope change above about 50%; inconclusive = mostly about 31% to 49%); conditions: MDR1-expressing cells, fluorescent substrate accumulation slope; stronger effect = higher value; concentration not given here
[14] = protection of motor neurons from glutamate death, cell-based, TUNEL DNA degradation staining, MNGlu (AID 1594; call rule not given here); conditions: glutamate-induced death, at 1 µM, stronger effect = higher value

Cc1csc(NC(=O)c2sc3nc4c(c(C(F)(F)F)c3c2N)CCC4)n1
inconclusive: AC50 [1] 0.00235 µM | AC50 [2] 20.9 µM [cytotoxic] | AC50 [3] 20.9 µM [cytotoxic] | AC50 [4] 0.662 µM [cytotoxic] | AC50 [5] 23.5 µM [cytotoxic] | AC50 [6] 20.9 µM [cytotoxic] | AC50 [7] 1.32 µM [cytotoxic] | IC50 [8] 18.6 µM

O=C(O)CCCCC(CCSCc1ccccc1)SCc1ccccc1 (stereo unspecified)
inconclusive: AC50 [2] 37.2 µM [cytotoxic] | AC50 [3] 3.32 µM [cytotoxic] | AC50 [4] 6.62 µM [cytotoxic]
inactive: outcome [1] | outcome [5] | outcome [6] | outcome [9]

CN(C)CCOc1cc(-c2cn[nH]c2)ccc1NC(=O)C1COc2ccccc2O1 (stereo unspecified)
inconclusive: AC50 [1] 0.00105 µM | AC50 [2] 23.5 µM [cytotoxic] | AC50 [3] 0.148 µM | AC50 [4] 2.35 µM [cytotoxic] | AC50 [5] 14.8 µM [cytotoxic] | AC50 [9] 0.00118 µM | IC50 [8] 0.00833 µM
active: AC50 [6] 7.42 µM

CCNC(=O)Nc1ccc(Oc2ncnc(N)c2/C=N/OC)cc1Cl
inconclusive: AC50 [1] 18.6 µM [cytotoxic] | AC50 [2] 0.00372 µM [cytotoxic] | AC50 [4] 13.2 µM [cytotoxic] | AC50 [5] 1.32 µM [cytotoxic] | AC50 [6] 18.6 µM [cytotoxic] | AC50 [9] 20.9 µM [cytotoxic]
inactive: outcome [3]

NCCc1ccc(O)c(O)c1
inconclusive: inhibition [10] 9.76% | aggregation (% of control) [11] 129% | SMN2/SMN1 luciferase ratio [12] 1 | AC50 [3] 14.8 µM [cytotoxic] | AC50 [5] 18.6 µM [cytotoxic] | AC50 [6] 0.00331 µM [cytotoxic]
inactive: outcome [1] | outcome [2] | outcome [4] | outcome [7] | outcome [9]

Cc1cccc(/C=N/Nc2cc(N3CCOCC3)nc(OCCc3ccccn3)n2)c1
inconclusive: AC50 [1] 5.25 µM [cytotoxic] | AC50 [2] 14.8 µM [cytotoxic] | AC50 [3] 7.43 µM [cytotoxic] | AC50 [4] 18.7 µM [cytotoxic] | AC50 [5] 3.32 µM [cytotoxic] | AC50 [6] 23.5 µM [cytotoxic] | AC50 [7] 18.7 µM [cytotoxic] | IC50 [8] 0.417 µM

CCCC1OC2C[C@H]3[C@@H]4CCC5=CC(=O)C=C[C@]5(C)[C@H]4C(O)C[C@]3(C)[C@]2(C(=O)CO)O1 (stereo partly specified)
inconclusive: AC50 [2] 26.4 µM [cytotoxic] | AC50 [3] 33.2 µM [cytotoxic] | AC50 [4] 33.2 µM [cytotoxic] | AC50 [5] 6.61 µM [cytotoxic] | AC50 [6] 16.6 µM [cytotoxic] | AC50 [9] 33.2 µM [cytotoxic]
inactive: outcome [1]

CN(Cc1cnc2nc(N)nc(N)c2n1)c1ccc(C(=O)N[C@@H](CCC(=O)O)C(=O)O)cc1
inconclusive: fluorescence slope change [13] 31.2% | inhibition [10] -3.6% | aggregation (% of control) [11] 97.5% | protection [14] -4% | SMN2/SMN1 luciferase ratio [12] 1.16 | AC50 [1] 0.0235 µM [cytotoxic] | AC50 [3] 0.166 µM [cytotoxic] | AC50 [4] 1.05 µM [cytotoxic] | AC50 [5] 0.332 µM [cytotoxic] | AC50 [7] 0.105 µM [cytotoxic]
active: AC50 [6] 0.417 µM
inactive: outcome [2] | outcome [8]

CN(C)S(=O)(=O)c1ccc2c(c1)C(=Cc1cc3c([nH]1)CCCC3)C(=O)N2
inactive: outcome [5]
inconclusive: AC50 [1] 4.17 µM [cytotoxic] | AC50 [2] 16.6 µM [cytotoxic] | AC50 [3] 18.7 µM [cytotoxic] | AC50 [4] 16.6 µM [cytotoxic] | AC50 [6] 3.72 µM [cytotoxic] | AC50 [9] 8.33 µM [cytotoxic] | IC50 [8] 13.2 µM [cytotoxic]

CN(C)Cc1ccc(-c2nc3cccc4c3n2CCNC4=O)cc1
active: AC50 [2] 18.7 µM
inconclusive: AC50 [1] 29.5 µM [cytotoxic] | AC50 [3] 23.5 µM [cytotoxic] | AC50 [4] 37.2 µM [cytotoxic] | AC50 [5] 33.2 µM [cytotoxic] | AC50 [6] 29.5 µM [cytotoxic] | AC50 [9] 26.3 µM [cytotoxic]

Cc1cc(Nc2nc(N[C@@H](C)c3ccc(F)cc3)c(C#N)cc2F)n[nH]1
inconclusive: AC50 [3] 16.6 µM [cytotoxic]
active: AC50 [1] 0.934 µM | AC50 [2] 20.9 µM | AC50 [4] 5.9 µM | AC50 [5] 4.68 µM | AC50 [6] 1.32 µM | AC50 [7] 23.5 µM | IC50 [8] 5.25 µM

Cc1ccc(C(=O)Nc2cccc(C(F)(F)F)c2)cc1-c1ccc2nc(NCCN3CCOCC3)ncc2c1
active: AC50 [1] 2.35 µM | AC50 [2] 6.62 µM | AC50 [3] 6.62 µM | AC50 [4] 4.69 µM | AC50 [5] 3.72 µM | AC50 [6] 2.09 µM
inconclusive: AC50 [7] 26.4 µM [cytotoxic] | IC50 [8] 5.9 µM [cytotoxic]

C[C@]12CC[C@@H]3c4ccc(O)cc4CC[C@H]3[C@@H]1C[C@@H](O)[C@@H]2O
inactive: outcome [5] | outcome [6]
inconclusive: AC50 [1] 20.9 µM [cytotoxic] | AC50 [2] 18.7 µM [cytotoxic] | AC50 [3] 10.5 µM [cytotoxic] | AC50 [4] 23.5 µM [cytotoxic]
active: AC50 [9] 23.5 µM

Nothing new here: 2 of the compounds above.
CN(C)Cc1ccc(-c2nc3cccc4c3n2CCNC4=O)cc1
active: AC50 [2] 18.7 µM
inconclusive: AC50 [1] 29.5 µM [cytotoxic] | AC50 [3] 23.5 µM [cytotoxic] | AC50 [4] 37.2 µM [cytotoxic] | AC50 [5] 33.2 µM [cytotoxic] | AC50 [6] 29.5 µM [cytotoxic] | AC50 [9] 26.3 µM [cytotoxic]

Cc1cc(Nc2nc(N[C@@H](C)c3ccc(F)cc3)c(C#N)cc2F)n[nH]1
inconclusive: AC50 [3] 16.6 µM [cytotoxic]
active: AC50 [1] 0.934 µM | AC50 [2] 20.9 µM | AC50 [4] 5.9 µM | AC50 [5] 4.68 µM | AC50 [6] 1.32 µM | AC50 [7] 23.5 µM | IC50 [8] 5.25 µM

The list goes on:

CS(=O)(=O)Nc1ccc([N+](=O)[O-])cc1Oc1ccccc1
inconclusive: inhibition [10] -21.4% | aggregation (% of control) [11] 101% | SMN2/SMN1 luciferase ratio [12] 0.98 | AC50 [4] 20.9 µM [cytotoxic] | AC50 [6] 11.8 µM [cytotoxic] | AC50 [7] 23.5 µM [cytotoxic] | AC50 [9] 10.5 µM [cytotoxic]
inactive: outcome [1] | outcome [2] | outcome [3] | outcome [5]

COC(=O)c1ccc2c(C(=Nc3ccc(N(C)C(=O)CN4CCN(C)CC4)cc3)c3ccccc3)c(O)[nH]c2c1
active: AC50 [1] 1.48 µM | AC50 [4] 9.35 µM | AC50 [5] 2.09 µM | AC50 [6] 1.66 µM | AC50 [9] 5.9 µM | IC50 [8] 3.32 µM
inconclusive: AC50 [2] 10.5 µM [cytotoxic] | AC50 [3] 1.48 µM [cytotoxic]

CCOc1cc(N2CCC(O)CC2)ccc1Nc1ncc2c(n1)N(C)c1ccccc1C(=O)N2C
active: AC50 [3] 7.43 µM | IC50 [8] 18.6 µM
inconclusive: AC50 [1] 0.00118 µM | AC50 [2] 13.2 µM [cytotoxic] | AC50 [4] 0.0935 µM [cytotoxic] | AC50 [5] 11.8 µM [cytotoxic] | AC50 [6] 8.33 µM [cytotoxic]

COc1c(C)c2c(c(O)c1C/C=C(\C)CCC(=O)OCCN1CCOCC1)C(=O)OC2
active: AC50 [1] 0.59 µM
inconclusive: AC50 [2] 2.64 µM [cytotoxic] | AC50 [3] 3.72 µM [cytotoxic] | AC50 [4] 1.66 µM [cytotoxic] | AC50 [5] 0.59 µM [cytotoxic] | AC50 [6] 1.18 µM [cytotoxic] | AC50 [9] 0.332 µM [cytotoxic] | IC50 [8] 37.2 µM
